The results in this text go back to publication PMC8812994.

This test addresses T1, Recombinant His-tagged FlaA (Vibrio anguillarum) (UniProt Q60246).
T1 sequence: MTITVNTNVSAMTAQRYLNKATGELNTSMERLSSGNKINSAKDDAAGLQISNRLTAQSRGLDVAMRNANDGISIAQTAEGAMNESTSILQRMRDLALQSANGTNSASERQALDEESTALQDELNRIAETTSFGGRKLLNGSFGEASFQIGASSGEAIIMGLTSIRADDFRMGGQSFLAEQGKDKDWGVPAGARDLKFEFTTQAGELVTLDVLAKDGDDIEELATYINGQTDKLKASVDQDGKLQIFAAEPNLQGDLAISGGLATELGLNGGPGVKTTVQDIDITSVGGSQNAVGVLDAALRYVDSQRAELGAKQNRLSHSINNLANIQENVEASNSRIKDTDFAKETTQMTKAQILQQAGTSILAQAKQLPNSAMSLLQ
Nature of the test: pull-down; His-tagged FlaA (10 μg) incubated with shrimp hemocytes homogenate supernatant (15 ml, PBS) at 4°C overnight; Ni-NTA resin, eluted with 250 mM imidazole; western blotting with anti-MjShoc2 and anti-6His antibodies; only the target purified.

No constants are given. Whether binding was seen depends on the method and setting. In cells and extracts the contact can be indirect. Binding calls can cover weak binding; strength is not graded here. Tags and fused reporters may be left off the sequences shown.

Turning to native MjShoc2 from shrimp hemocytes, the binding result was “binds”.
